Like-named read-outs stand apart in the source and are kept apart here.
Test system: other enzymes in the mevalonate pathway (conversion of MVA to GGPP)
Details: high micromolar concentrations, enzymes converting MVA to GGPP other than FPP synthase

inhibition of any other enzyme in the mevalonate pathway (in words) (listed as alendronate monosodium trihydrate): do not inhibit
inhibition of any other enzyme in the mevalonate pathway (in words) (monosodium trihydrate): does not inhibit
Structure (SMILES): NCCCC(O)(P(=O)(O)O)P(=O)(O)O [alendronate, 4-amino-1-hydroxybutylidene-1,1-bisphosphonic acid monosodium trihydrate]
